Among the data in patent US20190023770A1 are binding values, retold here.

In this assay the target is recombinant hemagglutinin H3 from human influenza A virus strain A/Perth/16/2009, extracellular domain residues 25-520 (influenza A virus A/Perth/16/2009) (UniProt O11283). As to the kind of experiment: co-crystal structure at 3.1 A; complex isolated by size exclusion chromatography. In general terms: Size exclusion chromatography separates by hydrodynamic size, large species first.

No constants are given. Whether binding was seen depends on the method and setting. Some results given as binding are weak or reduced against the parent protein; the word gives no strength.

B1: mAb 39.29 NCv1 Fab fragment (Fab, V domains shown)
VH: QVQLVESGGGVVQPGKSPRLSCAASGPTFSSYAVHWVRQAPGKGLEWVTLISYDGANQYYADSVKGRFTISRDNSKNTVYLQMNSLRPEDTAVYYCAVPGPVFGIFPPWSYFDNWGQGILVTVSS
VL: EIVLTQSPATLSVSPGERATLSCRASQVISHNLAWYQQKPGQAPRLLIYGASTRASGIPARFSGSGSGTDYTLTITSLQPEDFAVYYCQHYSNWPPRLTFGGGTKVEIK
As for B1, the binding entry was “binds”.
